Data as given in patent publication US20230192826A1.
Results are given in words; binding and its absence hold for the method and conditions named. Some entries that bind do so weakly or less than the wild type.

Sequences of proteins named here, by UniProt entry; tags and fusion partners are left off. A change or cut given only in a name is not applied to a line headed by its entry.
UniProt P10636: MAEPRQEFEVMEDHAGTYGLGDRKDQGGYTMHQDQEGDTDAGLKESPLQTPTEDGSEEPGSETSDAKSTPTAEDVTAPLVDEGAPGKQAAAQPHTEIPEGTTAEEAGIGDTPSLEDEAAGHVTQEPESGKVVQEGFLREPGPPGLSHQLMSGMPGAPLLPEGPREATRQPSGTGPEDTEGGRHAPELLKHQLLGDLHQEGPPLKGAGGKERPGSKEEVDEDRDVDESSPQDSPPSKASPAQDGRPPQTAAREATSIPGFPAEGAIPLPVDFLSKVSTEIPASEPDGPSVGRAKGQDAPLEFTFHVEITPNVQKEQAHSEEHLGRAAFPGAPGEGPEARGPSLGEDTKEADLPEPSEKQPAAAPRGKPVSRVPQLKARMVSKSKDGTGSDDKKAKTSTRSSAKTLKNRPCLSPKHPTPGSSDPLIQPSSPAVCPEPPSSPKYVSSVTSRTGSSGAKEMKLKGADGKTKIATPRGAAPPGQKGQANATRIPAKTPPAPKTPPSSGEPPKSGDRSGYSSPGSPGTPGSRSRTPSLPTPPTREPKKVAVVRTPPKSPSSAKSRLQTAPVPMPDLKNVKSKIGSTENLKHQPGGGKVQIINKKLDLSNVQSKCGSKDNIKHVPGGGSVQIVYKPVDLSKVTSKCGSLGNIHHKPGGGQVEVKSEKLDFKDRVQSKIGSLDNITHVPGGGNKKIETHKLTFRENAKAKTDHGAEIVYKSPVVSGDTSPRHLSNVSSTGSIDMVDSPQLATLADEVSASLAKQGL

T1: [C]-…-amide antigen peptide (human)
T1 sequence (peptide, C-terminal amide): CKKIETHKLTFREN


What was measured:
[1] = target: T1, [C]-…-amide antigen peptide (human); experiment: ELISA, antigen coated, HEK293F supernatant, anti-rabbit IgG-HRP
[2] = target: full length recombinant 2N4R tau (human) (UniProt P10636); experiment: as above
[3] = target: full length recombinant 2N4R tau (human) (UniProt P10636); experiment: ELISA, HEK supernatant 1:50 on coated full length 2N4R tau, anti-rabbit IgG-HRP
[4] = target: T1, [C]-…-amide antigen peptide (human); experiment: ELISA, HEK supernatant 1:50 on coated peptide (SEQ ID NO: 13), anti-rabbit IgG-HRP
[5] = target: full length recombinant 2N4R tau (human) (UniProt P10636); experiment: western blot, HEK supernatant as primary antibody
[6] = target: full length recombinant 2N4R tau (human) (UniProt P10636); experiment: western blot, HEK293F supernatant as primary antibody
[7] = target: full length recombinant 2N4R tau (human) (UniProt P10636); experiment: western blot with HEK supernatant; recombinant 2N4R tau 200, 67, 22 ng in lanes 1-3

| Binder | binding [1] | binding [2] | binding [3] | binding [4] | binding [5] | binding [6] | binding [7] |
| --- | --- | --- | --- | --- | --- | --- | --- |
| anti-tau rabbit IgG Clone 12 (#5) (antibody, V domains shown) VH: QSLEESGGRLVTPGTPLTLTCTVSGIDLSSYAVGWVRQAPGKGLEWIGCIDSHDNTFYASWAKSRFTISKTSTTVDLKITSPTTEDTATYFCARDSGAFNPWGPGTLVTVSS VL: ARVLTQTPSPVSAAVGGTVTINCQASQSVYDNYLSWYQQKPGQPPKLLIHAVSNLASGVPSRFKGSGSGTQFTLTISDVQCDDAATYYCLGEFYCSSIDCNAFGGGTEVVVKG | binds | binds | binds | binds |  |  |  |
| anti-tau rabbit IgG Clone 11 (#47) (antibody, V domains shown) VH: QSVEESGGRLVPPGTPLTLTCTVSGIDLNNYAMAWVRQAPGKGLEWIGCIDRRGGTFYASWAKGRFTISKTSTTVDLKMTSLTTEDTATYFCARDSGAFDPWGPGTLVTVSS VL: QIVMTQTPSPVSVAVGGTVTIKCQASQSVYDNYLAWYQQKPGQPPKLLIHAASNLASRVPSRFKGSGSGTQFTLTISDVQCDDAATYYCLGEFSCTTTDCNVFGGGTEVVVKG | binds | binds | binds | binds |  |  |  |
| anti-tau rabbit IgG Clone 7 (#43) (antibody, V domains shown) VH: QSVEESGGRLVTPGTPLTLTCTVSGIDLSSYAMSWVRQAPGKGLEWIGCIDSRGSVYYASWAKGRFTISKTSTTVDLKVTSPTTEDTATYFCARDSGAFDPWGPGTLVTVSS VL: QIVMTQTPASVSAAVGGTVTISCQASQSVYDNYLSWYQQKPGQPPKLLIVAASNLASGVPSRFKGSGSGTQFTLTISDVQCDDAATYYCLGEFYCSSMDCNAFGGGTEVVVKG | binds | binds | binds | binds |  |  |  |
| anti-tau rabbit IgG Clone 9 (#87) (antibody, V domains shown) VH: QSLEESGGRLVTPGTPLTLTCTVSGIDLSSYAVGWVRQAPGKGLEWIGCIDSHDNTFYASWAKGRFTISKTSTTVDLKITSPTTEDTATYFCARDSGAFNPWGPGTLVTVSS VL: ARVLTQTPSPVSAAVGGTVTINCQASQSVYDNYLSWYQQKPGQPPKLLIHAVSNLASGVPSRFKGSGSGTQFTLTISDVQCDDAATYYCLGEFYCSSIDCNAFGGGTEVVVKG | binds | binds | binds | binds |  |  |  |
| anti-tau rabbit IgG Clone 5 (#61) (antibody, V domains shown) VH: QSVEESGGRLVTPGTPLTLTCTASGIDLSTYAMAWVRQAPGKGLEWIGCIDRRGGTFYASWAKGRFTISKTSTTVDLKMTSLTTEDTATYFCARDSGAFDPWGPGTLVTVSS VL: QIVMTQTPSPVSVAVGGTVTIKCQASQSVYDNYLAWYQQKPGQPPKLLIHAASNLASGVPSRFKGSGSGTEFTLTISDVQCDDAATYYCLGEFSCTTTDCNVFGGGTEVVVKG | binds | binds | binds | binds |  |  |  |
| anti-tau rabbit IgG Clone 6 (#34) (antibody, V domains shown) VH: QSVEESGGRLVTPGTPLTLTCTVSGIDLNKNAMIWVRQAPGKGLEYIGNIGTRGTTYYASWTKGRFTISRTSTTVDLKMTSPTTEDTATYFCTRGDIWGPGTLVTVSL VL: AQVLTQTPSPVSAPLGGTVTINCQSSQSVNNNDLAWYQQKPGQRPKVLIYEASTLASGVSSRFKGSGSGTQFTLTISDVQCDDAATYYCLGEFSCSSADCVAFGGGTELVVKG | binds | binds | binds | binds |  |  |  |
| anti-tau rabbit IgG Clone 8 (#41) (antibody, V domains shown) VH: QSMEESGGRLVTPGTPLTLTCTVSGIDLSSNAMIWVRQAPGKGLEYIGNIGTHGTTYYASWAKGRFTISKTSTTVDLKMTSPTTEDTATYFCSRGDIWGPGTLVTVSL VL: AQVLTQTPSPVSVAVGGTVTINCQASQSVDNNNNLAWYHQKPGQPPKLLIYEASTLASGVSSRFKGSGSGTQFTLTISGVQCDDAATYYCLGEFSCSSADCVAFGGGTEVVVKG | binds | binds | binds | binds |  |  |  |
| anti-tau rabbit IgG Clone 10 (#65) (antibody, V domains shown) VH: QSVEESGGRLVTPGTPLTLTCTVSGIDLSSNAMIWVRQAPGKGLEYIGNIGTHGTTYYASWSKGRFTISKTSTTVDLKMTSPTTEDTATYFCSRGDIWGPGTLVTVSL VL: AQVLTQTASPVSAAVGGTVTIYCQASQSVDNNNNLAWYQQKPGQPPKLLIYEASTLASGVSSRFKGSGSGTQFTLTISDVQCDDAATYYCLGEFSCSSADCVAFGGGTEMVVKG | binds | binds | binds | binds |  |  |  |

The next lines start with the values.

| binding [1] | binding [2] | binding [3] | binding [4] | binding [5] | binding [6] | binding [7] | Binder |
| --- | --- | --- | --- | --- | --- | --- | --- |
| binds | binds | binds | binds |  |  |  | anti-tau rabbit IgG Clone 15 (#77) (antibody, V domains shown) VH: QSVEESGGRLVTPGGSLTLTCTVSGIDLSSYAMTWVRQAPGKGLEWIGCIDTGGSAYYASWAKGRFTISKTSTTVALKITSPTTEDTATYFCARDTGAFDPWGPGTLVTVSS VL: QIVMTQTPASVSVAVGGTVTINCQASQSVYDNNLAWYQQKPGQPPKLLIVAASNLPSGVPSRFKGSGSGTQFTLTISDVQCDDAATYYCLGEFSCSSTDCNAFGGGTEVVGKG |
| binds | binds | binds | binds |  |  |  | anti-tau rabbit IgG Clone 13 (#37) (antibody, V domains shown) VH: QSLEESGGRLVTPGGSLTLTCTVSGIDLSSYAMGWVRQAPGKGLEWIGCIDRRGATFYASWAKGRFTISKTSTTVDLKMTSLTTEDTATYFCARDSGAFDPWGPGTLVTVSS VL: QIVMTQTPSPVSAAVGGTVTIKCQASQSVYDNYLSWYHQKPGQPPKLLIHAASNLASRVPSRFKGSGSGTQFTLTISDVQCDDAATYYCLGEFSCTTTDCNVFGGGTEVVVKG |
| binds | binds | binds | binds |  |  |  | anti-tau rabbit IgG Clone 17 (#69) (antibody, V domains shown) VH: QSVEESGGRLVTPGTPLTLTCTVSGIDLSIYAMGWVRQAPGKGLEWIGCIDRRGATFYATWAKGRFTISKTSTTVDLKLTSLTTEDTATYFCARDSGAFDPWGPGTLVTVSS VL: QIVMTQTPSPVSAAVGGTVTIKCQASQSVYDNNLAWYQQKPGQPPKLLIHAASNLASRVPSRFSGSGSGTQFTLTISDVQCDDAATYYCLGEFSCTTTDCNVFGGGTEVVVKG |
| binds | binds | binds | binds |  |  |  | anti-tau rabbit IgG Clone 14 (#56) (antibody, V domains shown) VH: QSVEESGGRLVTPGTPLTLTCTVSGIDLNSYAMGWVRQAPGKGLEWIGCIDRRGGTFYASWAKGRFTISKTSTTVDLKMTSLTTEDTATYFCARDSGAFDPWGPGTLVTVSS VL: QIVMTQTPSPVSVAVGGTVTIKCQASQSVYDNYLAWYQQKPGQPPKLLIHAASNLASRVPSRFKGSGSGTQFTLTISDVQCDDAATYYCLGEFSCTTTDCNVFGGGTEVVVKG |
| binds | binds | binds | binds | binds | binds | binds | anti-tau rabbit IgG clone #45 (Clone 4) (antibody, V domains shown) VH: QSLEESGGRLVTPGTPLTLTCTVSGIDLSSYAVGWVRQAPGKGLEWIGCIDGRDSAFYASWAKGRFTISKTSTTVDLKITSPTTEDTATYFCARDSGAFNPWGPGTLVTVSS VL: ARVLTQTPSPVSAAVGGTVTINCQASQSVYDNYLSWYQQKPGQPPKLLIHAVSNLASGVPSRFKGSGSGTQFTLTISDVQCDDAATYSCLGEFYCSSIDCNAFGGGTEVVVKG |
| binds | binds | binds | binds |  |  |  | anti-tau rabbit IgG Clone 16 (#10) (antibody, V domains shown) VH: QSLEESGGRLVTPGTPLTLTCTVSGIDLSSYAVGWVRQAPGKGLEWIGCIDSRDSAFYASWAKGRFTISKTSTTVDLKITSPTTEDTATYFCARDSGAFNPWGPGTLVTVSS VL: ARVLTQTPSPVSAVVGGTVTINCQASQSVYDNYLSWYQQKPGQPPKLLIHAVSNLASGVPSRFKGSGSGTQFTLTISDVQCDDAATYYCLGEFYCSSIDCNAFGGGTEVVVKG |
